We go through 1 molecule from US20240390438A1, “PROBIOTICS SEPARATED FROM RABBIT FECES AND FOOD CONTAINING PROBIOTICS” (AGENT Innovation Co., Ltd., priority 2021, published 2024).

The subject of the assay is Staphylococcus aureus. The assay is described as follows: Agar diffusion method-2 (cell-free solution). Format: cell-based. To be noted: colonies as cell-free solution in holes of TSA; ddH2O control 8. As to the method:
Firstly, the CFSs (containing metabolites) were prepared. Besides, when probiotics break down fiber and convert the fiber into metabolites, the metabolites are postbiotics.
Next, the pathogenic bacteria described above were also cultured with 37° C. until the concentration thereof reached 1×10^8 CFU/mL, respectively. 100 μL bacterial solutions of the pathogenic bacteria described above were evenly plated on Tryptone Soy Agar (TSA) and stay for 10 minutes. Then, tips were used to form several holes in the TSA. Subsequently, 100 μL bacterial solutions of the colonies described above were added into the holes and then cultured at 37° C. for 12 hours.
This experiment is designed that the CFSs in the holes prevent the pathogenic bacteria on the plates from growing. Therefore, the larger zone indicates the better antibacterial effect.

As for `CC1(C)S[C@@H]2[C@H](NC(=O)[C@H](N)c3ccccc3)C(=O)N2[C@H]1C(=O)O` [Ampicillin], the “Inhibitory zone, Staphylococcus Aureus” value was determined as 19 mm.
